Reference: article PMC10604535
These are yes or no findings as the source states them, for the method shown. Binding seen in cells or lysates may run through a third protein. Some entries that bind do so weakly or less than the wild type.

The chains behind the UniProt entries cited, without tags or fusion partners.
UniProt Q92793: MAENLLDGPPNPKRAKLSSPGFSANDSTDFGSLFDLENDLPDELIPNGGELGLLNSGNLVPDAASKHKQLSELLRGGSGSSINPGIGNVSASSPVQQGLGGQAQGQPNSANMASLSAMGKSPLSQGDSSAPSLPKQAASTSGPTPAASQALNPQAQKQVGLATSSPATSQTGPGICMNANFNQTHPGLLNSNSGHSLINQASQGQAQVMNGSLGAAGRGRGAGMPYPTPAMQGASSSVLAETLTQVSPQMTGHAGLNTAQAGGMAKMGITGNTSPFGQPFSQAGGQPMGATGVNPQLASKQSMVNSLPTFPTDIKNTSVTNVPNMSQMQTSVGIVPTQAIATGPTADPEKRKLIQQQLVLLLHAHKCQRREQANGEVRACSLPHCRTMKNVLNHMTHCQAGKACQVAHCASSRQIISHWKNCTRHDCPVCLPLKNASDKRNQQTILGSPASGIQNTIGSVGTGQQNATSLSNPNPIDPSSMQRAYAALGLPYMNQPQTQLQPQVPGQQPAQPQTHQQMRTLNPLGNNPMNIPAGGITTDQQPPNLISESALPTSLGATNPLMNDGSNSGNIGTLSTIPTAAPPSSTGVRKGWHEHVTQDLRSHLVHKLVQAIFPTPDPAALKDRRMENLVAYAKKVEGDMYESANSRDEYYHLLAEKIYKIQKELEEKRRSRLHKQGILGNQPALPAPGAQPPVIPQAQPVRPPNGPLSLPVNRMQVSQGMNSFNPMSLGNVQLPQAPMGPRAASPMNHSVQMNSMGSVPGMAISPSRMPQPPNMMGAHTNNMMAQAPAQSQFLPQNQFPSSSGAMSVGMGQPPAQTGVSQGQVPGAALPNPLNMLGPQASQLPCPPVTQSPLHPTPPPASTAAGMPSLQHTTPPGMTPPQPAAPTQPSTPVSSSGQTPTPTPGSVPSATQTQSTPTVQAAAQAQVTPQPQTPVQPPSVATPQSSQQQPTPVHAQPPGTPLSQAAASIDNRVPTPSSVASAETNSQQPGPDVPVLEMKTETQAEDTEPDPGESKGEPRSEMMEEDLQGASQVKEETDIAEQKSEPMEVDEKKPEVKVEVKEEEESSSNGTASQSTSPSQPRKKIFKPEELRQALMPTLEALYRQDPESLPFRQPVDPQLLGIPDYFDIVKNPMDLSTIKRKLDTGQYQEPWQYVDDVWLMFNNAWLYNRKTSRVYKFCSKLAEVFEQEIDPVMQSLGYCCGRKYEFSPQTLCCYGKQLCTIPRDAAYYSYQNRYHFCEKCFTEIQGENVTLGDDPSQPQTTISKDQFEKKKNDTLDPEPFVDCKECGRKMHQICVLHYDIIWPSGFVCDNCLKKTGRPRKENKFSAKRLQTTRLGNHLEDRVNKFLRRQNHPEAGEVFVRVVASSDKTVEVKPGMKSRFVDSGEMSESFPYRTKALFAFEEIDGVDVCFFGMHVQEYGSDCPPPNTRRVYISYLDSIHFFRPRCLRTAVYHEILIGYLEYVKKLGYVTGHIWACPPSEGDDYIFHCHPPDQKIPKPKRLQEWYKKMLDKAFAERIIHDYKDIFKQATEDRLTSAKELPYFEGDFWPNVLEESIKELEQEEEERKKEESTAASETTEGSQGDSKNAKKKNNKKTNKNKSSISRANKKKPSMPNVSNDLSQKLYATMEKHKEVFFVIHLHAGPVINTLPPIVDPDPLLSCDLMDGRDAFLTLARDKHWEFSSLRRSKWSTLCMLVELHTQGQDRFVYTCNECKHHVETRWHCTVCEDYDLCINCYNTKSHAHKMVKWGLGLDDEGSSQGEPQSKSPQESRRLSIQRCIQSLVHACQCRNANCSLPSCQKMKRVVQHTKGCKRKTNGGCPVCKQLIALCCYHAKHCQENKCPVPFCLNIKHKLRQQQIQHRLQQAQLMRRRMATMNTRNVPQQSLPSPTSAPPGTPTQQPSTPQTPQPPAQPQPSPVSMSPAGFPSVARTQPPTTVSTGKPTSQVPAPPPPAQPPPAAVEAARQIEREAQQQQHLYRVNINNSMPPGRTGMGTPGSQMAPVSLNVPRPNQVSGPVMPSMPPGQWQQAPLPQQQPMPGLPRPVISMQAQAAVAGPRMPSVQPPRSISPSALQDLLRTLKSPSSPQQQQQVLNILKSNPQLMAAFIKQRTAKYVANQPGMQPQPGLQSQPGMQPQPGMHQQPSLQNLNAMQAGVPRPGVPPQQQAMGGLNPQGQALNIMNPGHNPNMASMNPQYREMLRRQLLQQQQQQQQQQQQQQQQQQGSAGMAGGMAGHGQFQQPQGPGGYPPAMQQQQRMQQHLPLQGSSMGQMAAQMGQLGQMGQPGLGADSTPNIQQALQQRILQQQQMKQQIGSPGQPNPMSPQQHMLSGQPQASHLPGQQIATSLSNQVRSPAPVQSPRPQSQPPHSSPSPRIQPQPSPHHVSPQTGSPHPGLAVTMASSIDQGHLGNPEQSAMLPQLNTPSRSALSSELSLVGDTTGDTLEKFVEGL
UniProt P16220: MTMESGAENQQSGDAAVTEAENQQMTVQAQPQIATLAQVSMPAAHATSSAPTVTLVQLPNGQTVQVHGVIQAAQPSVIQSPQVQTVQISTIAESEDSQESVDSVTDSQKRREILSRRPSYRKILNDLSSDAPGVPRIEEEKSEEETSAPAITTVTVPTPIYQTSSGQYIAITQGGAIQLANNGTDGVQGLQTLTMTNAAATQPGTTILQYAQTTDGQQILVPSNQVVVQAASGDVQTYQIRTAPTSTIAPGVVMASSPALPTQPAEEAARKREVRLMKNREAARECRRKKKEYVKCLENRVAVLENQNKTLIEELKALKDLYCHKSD

Target: CREB-binding protein (CBP) (human (endogenous in 293T)) (UniProt Q92793)
Assay: co-IP; 293T cells transfected with or without CRTC2-Flag plasmid for 48 h; RIPA lysate; IP with CBP antibody (normal mouse IgG as control) overnight at 4 °C, Protein A/G agarose, PBS washes; immunoblot

binding: binds
Substance: cAMP response element-binding protein (CREB) (from UniProt P16220 1-327)
